Measured values from the supplement of paper PMC10849652.
The list shows a part of the results.

Chains of the proteins cited; added tags and fusions are not shown. Lines headed by an entry give the natural chain unless they say otherwise; changes in a name come on top.
UniProt Q6YP21: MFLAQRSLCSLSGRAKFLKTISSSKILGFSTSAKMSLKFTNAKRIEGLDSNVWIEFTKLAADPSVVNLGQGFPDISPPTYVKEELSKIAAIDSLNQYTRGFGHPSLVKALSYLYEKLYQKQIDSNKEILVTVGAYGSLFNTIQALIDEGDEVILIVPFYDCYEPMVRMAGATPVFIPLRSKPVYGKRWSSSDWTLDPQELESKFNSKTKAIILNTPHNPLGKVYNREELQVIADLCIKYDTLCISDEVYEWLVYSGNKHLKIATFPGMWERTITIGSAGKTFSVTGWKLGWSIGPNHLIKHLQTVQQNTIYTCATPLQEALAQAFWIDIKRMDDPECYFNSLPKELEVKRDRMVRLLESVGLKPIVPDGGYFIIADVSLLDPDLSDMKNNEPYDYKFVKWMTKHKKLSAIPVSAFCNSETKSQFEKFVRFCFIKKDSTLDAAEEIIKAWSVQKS
UniProt Q6IAA8, whole entry, looked up: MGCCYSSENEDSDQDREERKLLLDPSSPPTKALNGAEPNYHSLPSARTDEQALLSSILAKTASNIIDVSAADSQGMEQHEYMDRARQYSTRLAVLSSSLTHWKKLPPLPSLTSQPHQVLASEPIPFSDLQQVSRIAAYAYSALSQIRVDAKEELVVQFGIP
UniProt Q9H008: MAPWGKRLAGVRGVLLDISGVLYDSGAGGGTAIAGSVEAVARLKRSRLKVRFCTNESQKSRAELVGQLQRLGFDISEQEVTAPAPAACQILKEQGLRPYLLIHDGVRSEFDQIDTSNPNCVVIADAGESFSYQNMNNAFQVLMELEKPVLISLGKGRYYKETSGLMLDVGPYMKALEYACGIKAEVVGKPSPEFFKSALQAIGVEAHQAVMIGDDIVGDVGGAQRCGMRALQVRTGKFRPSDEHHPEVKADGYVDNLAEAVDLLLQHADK
UniProt P28838: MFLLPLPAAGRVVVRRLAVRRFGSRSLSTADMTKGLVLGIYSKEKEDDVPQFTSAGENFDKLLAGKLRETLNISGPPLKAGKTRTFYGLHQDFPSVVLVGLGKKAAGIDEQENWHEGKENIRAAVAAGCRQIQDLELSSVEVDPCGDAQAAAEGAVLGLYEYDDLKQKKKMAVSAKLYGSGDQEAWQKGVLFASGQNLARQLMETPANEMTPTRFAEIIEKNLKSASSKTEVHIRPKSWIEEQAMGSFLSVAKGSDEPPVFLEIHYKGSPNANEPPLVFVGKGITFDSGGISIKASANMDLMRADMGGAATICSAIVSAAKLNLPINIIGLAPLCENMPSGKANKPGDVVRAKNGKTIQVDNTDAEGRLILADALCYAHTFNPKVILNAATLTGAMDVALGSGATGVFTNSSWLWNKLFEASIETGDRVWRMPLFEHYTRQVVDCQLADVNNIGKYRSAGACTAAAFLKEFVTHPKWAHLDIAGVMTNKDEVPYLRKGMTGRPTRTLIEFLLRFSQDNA
UniProt P48059, whole entry, looked up: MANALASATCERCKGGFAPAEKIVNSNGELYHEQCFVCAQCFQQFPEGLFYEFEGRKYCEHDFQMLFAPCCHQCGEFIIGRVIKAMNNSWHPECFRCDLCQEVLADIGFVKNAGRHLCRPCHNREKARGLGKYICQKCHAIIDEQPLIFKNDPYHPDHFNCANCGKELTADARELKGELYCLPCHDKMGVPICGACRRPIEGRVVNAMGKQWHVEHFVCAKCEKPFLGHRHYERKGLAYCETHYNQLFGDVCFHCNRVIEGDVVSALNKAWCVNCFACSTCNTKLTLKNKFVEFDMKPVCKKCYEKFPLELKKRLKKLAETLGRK
UniProt Q53H82: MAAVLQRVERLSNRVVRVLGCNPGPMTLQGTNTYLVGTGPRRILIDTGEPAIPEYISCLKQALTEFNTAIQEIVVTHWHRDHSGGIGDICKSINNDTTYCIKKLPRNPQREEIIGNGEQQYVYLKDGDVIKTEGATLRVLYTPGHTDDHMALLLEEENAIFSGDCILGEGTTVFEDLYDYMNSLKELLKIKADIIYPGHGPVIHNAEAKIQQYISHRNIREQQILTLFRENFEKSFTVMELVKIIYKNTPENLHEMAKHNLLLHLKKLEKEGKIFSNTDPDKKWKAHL
UniProt Q86U70: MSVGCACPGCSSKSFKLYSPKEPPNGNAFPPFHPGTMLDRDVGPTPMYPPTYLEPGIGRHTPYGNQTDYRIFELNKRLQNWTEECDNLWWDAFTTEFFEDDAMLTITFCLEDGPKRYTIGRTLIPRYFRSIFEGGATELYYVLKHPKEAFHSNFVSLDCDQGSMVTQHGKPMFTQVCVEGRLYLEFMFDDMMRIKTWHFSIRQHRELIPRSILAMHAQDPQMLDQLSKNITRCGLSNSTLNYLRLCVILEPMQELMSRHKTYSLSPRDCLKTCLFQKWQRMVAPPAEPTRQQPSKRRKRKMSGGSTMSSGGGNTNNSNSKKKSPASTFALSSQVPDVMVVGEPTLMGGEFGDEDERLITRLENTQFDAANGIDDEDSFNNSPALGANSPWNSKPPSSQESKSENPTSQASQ
UniProt P18858, whole entry, looked up: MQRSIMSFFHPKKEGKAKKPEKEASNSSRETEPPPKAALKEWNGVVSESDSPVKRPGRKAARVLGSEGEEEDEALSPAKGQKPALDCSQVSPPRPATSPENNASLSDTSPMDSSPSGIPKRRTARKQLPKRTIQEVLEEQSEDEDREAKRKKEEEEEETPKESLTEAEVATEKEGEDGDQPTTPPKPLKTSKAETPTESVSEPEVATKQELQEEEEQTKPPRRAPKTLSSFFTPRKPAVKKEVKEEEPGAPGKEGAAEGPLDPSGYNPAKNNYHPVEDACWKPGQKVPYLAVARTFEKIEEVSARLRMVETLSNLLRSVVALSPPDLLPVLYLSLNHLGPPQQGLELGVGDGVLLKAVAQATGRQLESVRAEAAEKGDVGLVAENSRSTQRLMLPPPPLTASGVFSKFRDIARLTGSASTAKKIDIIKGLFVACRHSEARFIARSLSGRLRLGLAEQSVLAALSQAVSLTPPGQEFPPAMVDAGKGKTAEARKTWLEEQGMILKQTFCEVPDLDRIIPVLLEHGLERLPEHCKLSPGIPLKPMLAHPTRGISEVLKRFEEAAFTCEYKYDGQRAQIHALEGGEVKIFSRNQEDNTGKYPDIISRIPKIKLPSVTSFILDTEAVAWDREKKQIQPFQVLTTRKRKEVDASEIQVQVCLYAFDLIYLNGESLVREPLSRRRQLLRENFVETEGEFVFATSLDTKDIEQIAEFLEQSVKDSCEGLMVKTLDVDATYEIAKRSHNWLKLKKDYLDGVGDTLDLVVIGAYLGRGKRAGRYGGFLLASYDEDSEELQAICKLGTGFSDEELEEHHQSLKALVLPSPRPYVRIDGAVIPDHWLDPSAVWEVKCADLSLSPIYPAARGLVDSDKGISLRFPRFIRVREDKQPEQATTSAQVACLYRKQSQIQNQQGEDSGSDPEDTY
UniProt O95202: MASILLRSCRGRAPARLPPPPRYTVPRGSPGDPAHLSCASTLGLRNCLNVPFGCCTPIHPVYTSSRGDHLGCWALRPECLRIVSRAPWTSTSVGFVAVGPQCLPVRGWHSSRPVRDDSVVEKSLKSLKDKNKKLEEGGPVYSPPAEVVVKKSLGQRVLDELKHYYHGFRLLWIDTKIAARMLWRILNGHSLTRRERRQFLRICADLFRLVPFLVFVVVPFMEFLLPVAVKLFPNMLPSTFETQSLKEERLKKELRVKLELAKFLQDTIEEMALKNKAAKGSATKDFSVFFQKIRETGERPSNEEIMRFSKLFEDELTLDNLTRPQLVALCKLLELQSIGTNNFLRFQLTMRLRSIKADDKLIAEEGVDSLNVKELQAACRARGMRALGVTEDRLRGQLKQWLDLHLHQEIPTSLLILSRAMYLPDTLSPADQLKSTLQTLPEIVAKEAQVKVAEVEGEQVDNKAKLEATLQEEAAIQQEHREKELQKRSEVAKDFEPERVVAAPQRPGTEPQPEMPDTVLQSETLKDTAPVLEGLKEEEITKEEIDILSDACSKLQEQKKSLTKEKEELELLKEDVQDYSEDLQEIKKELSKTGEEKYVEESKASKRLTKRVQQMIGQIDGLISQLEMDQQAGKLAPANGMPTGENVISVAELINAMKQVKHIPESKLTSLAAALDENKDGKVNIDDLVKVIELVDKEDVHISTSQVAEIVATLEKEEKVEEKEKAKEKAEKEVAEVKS
UniProt Q8NF37: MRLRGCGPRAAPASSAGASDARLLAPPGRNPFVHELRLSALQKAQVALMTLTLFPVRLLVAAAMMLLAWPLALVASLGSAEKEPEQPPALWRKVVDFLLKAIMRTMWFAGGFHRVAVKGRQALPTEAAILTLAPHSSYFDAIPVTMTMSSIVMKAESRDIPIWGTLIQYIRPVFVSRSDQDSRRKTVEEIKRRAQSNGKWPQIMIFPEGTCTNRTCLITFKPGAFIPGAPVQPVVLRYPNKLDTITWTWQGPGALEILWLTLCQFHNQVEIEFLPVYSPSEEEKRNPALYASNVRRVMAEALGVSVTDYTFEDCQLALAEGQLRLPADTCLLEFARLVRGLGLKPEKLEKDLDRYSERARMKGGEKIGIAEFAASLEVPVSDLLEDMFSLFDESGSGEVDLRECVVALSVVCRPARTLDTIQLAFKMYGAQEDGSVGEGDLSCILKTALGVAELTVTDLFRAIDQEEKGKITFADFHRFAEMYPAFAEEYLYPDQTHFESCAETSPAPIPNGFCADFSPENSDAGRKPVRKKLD
UniProt Q6UWP7: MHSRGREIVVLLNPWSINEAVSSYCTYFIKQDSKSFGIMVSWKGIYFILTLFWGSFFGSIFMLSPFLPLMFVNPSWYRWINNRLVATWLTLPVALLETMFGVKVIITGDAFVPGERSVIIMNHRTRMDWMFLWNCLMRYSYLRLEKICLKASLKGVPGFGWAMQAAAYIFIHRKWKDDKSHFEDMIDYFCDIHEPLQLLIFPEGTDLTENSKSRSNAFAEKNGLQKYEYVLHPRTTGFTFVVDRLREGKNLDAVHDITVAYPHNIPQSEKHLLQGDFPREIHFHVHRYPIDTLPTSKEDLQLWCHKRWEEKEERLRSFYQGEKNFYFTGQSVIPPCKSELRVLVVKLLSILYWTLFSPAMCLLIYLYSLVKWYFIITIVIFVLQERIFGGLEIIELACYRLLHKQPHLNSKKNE
UniProt Q9Y2Q5, whole entry, looked up: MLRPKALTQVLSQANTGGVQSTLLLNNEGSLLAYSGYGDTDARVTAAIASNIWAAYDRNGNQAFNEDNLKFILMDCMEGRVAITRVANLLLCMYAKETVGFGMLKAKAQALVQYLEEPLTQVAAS
UniProt Q12907: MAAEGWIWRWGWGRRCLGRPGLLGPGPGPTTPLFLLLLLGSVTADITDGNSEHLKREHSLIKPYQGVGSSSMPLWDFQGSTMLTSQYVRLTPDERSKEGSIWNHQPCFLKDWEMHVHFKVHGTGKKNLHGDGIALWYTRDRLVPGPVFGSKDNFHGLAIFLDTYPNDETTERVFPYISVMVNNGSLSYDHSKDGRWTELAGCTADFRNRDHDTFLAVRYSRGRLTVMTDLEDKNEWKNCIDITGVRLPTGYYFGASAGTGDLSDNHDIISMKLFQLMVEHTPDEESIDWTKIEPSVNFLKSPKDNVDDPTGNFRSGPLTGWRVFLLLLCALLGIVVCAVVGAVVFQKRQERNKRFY
UniProt Q9NS86: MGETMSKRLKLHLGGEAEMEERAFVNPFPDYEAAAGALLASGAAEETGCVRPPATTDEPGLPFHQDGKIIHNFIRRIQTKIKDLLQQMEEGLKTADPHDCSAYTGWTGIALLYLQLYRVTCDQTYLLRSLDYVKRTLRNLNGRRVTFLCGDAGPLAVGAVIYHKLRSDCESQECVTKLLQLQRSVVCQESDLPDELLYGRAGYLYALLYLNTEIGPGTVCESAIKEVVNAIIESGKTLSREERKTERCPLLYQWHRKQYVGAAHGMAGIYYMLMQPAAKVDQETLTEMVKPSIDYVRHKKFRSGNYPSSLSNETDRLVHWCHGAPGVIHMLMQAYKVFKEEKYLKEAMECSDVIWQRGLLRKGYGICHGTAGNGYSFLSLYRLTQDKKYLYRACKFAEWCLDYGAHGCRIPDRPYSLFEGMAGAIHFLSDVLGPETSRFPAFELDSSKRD
UniProt P13796: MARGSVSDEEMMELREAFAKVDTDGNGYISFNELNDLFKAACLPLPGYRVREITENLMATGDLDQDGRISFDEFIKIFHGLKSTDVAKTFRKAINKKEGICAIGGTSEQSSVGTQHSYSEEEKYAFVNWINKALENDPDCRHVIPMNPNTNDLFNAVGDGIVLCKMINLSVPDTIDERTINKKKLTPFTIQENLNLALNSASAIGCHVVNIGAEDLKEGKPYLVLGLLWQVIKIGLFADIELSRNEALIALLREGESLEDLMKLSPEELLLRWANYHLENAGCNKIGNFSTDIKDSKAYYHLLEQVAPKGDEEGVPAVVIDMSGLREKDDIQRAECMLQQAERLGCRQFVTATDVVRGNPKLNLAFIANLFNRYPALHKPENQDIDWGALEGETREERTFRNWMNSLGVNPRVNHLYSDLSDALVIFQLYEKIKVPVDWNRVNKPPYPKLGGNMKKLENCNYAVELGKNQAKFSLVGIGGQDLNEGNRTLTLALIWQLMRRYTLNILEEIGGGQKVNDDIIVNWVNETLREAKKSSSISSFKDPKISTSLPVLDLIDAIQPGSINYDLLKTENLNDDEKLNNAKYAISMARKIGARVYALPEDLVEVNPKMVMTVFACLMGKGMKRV

Compound: CN1CC[C@H](c2c(O)cc(O)c3c(=O)cc(-c4ccccc4Cl)oc23)[C@H](O)C1 [alvocidib]
Assay: log2 fold change, soluble protein after heating vs DMSO (PISA); higher = thermal stabilisation; K562 cells, 10 uM, 30 min; active = over 0.2 and 3.5 SD of the protein, either way, in both replicates (recomputed)
Outline: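 K562 cells at 2×10^6 cells/mL were given 10 μM compound for 30 min. Aliquots then went through 3 min of heating across 48°C-58°C, were pooled, and were extracted in PBS with 0.5% NP-40 at 4°C, and the supernatant after 21,000xg for 90 min was quantified by TMTpro 16plex LC-MS/MS with channel sums equalised. Thermal stability relative to control samples, from duplicates, is given as log2 fold change.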

log2 fold change, inactive:
LARS (UniProt Q9P2J5) 0.146, KYAT3 (UniProt Q6YP21) 0.019, LAMTOR1 (UniProt Q6IAA8) -0.016, LHPP (UniProt Q9H008) -0.012, LAP3 (UniProt P28838) -0.014, LANCL1 (UniProt O43813) -0.036, LASP1 (UniProt Q14847) 0.006, LRRC47 (UniProt Q8N1G4) -0.063, L3HYPDH (UniProt Q96EM0) -0.016, LRRC57 (UniProt Q8N9N7) -0.046, LIMS1 isoform 3 (UniProt P48059) 0.01, LARS2 (UniProt Q15031) -0.06, LLPH (UniProt Q9BRT6) 0.335, LACTB2 (UniProt Q53H82) -0.022, LCMT1 (UniProt Q9UIC8) -0.023, LDB1 (UniProt Q86U70) 0.001, LENG1 (UniProt Q96BZ8) 0.079, LIG1 (UniProt P18858) -0.173, LETM1 (UniProt O95202) -0.029, LDHB (UniProt P07195) -0.01, LMAN2L isoform 2 (UniProt Q9H0V9) -0.051, LPCAT1 (UniProt Q8NF37) -0.06, LRRC20 (UniProt Q8TCA0) -0.011, LCLAT1 (UniProt Q6UWP7) -0.046, LAMTOR2 (UniProt Q9Y2Q5) 0.082, LONP1 (UniProt P36776) -0.011, LIN28B (UniProt Q6ZN17) 0.156, LMAN2 (UniProt Q12907) -0.023, LANCL2 (UniProt Q9NS86) -0.018, LCP1 (UniProt P13796) 0.02, LIMK2 isoform 3 (UniProt P53671) 0.067, LRRC40 (UniProt Q9H9A6) -0.027
